Measurements: PMC11455953
These are yes or no findings as the source states them, for the method shown. Binding seen in cells or lysates may run through a third protein. Some entries that bind do so weakly or less than the wild type. Sequences can lack the tags named with a protein. One block for each binder: values may come before it.

Protein sequences, listed by entry. Tags and fused reporters are not part of them.
UniProt Q8NHH9: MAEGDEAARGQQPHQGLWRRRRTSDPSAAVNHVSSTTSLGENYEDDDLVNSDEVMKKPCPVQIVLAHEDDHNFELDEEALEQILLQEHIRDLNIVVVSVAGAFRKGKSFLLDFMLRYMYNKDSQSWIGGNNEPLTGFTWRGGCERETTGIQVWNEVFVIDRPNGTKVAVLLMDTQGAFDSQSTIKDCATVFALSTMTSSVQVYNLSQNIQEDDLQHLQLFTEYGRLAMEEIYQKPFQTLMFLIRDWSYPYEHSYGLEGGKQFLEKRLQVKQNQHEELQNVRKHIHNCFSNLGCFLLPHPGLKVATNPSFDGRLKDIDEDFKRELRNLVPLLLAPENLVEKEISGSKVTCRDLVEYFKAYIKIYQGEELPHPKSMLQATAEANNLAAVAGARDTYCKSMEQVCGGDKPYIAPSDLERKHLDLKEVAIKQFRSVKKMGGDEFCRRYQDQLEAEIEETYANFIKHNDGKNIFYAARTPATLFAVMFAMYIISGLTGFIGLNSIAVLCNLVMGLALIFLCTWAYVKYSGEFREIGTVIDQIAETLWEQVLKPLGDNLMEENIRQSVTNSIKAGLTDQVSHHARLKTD

How the values were obtained:
[1] = molecular target: T1, FLAG-tagged ATL1 (ATL1-FLAG) (human) (UniProt Q8WXF7); assay: co-IP + SEC; REEP-SBP co-expressed with ATL-FLAG in Expi293 cells; solubilised in 3% digitonin, 50 mM HEPES pH 7.5, 800 mM NaCl, 4 °C; bound to anti-FLAG resin, eluted with 0.2 mg/ml 3xFLAG peptide; Superose 6 in 20 mM HEPES pH 7.5, 150 mM NaCl, 0.06% digitonin; fractions by SDS-PAGE and Coomassie blue
T1 sequence: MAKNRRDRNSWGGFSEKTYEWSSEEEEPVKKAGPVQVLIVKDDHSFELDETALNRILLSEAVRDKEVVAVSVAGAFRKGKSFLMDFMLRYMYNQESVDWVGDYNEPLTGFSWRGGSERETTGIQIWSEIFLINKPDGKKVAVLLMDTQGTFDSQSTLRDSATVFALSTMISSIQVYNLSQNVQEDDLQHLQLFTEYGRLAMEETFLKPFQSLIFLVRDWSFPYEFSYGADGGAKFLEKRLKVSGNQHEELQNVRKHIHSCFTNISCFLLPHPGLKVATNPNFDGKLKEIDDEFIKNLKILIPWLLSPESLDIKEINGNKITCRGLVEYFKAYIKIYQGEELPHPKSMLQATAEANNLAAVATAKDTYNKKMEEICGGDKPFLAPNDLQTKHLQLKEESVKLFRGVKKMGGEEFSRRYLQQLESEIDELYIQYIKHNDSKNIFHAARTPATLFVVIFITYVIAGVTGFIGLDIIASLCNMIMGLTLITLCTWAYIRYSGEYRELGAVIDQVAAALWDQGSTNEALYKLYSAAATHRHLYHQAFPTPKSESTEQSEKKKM

[2] = molecular target: FLAG-tagged ATL2 (ATL2-FLAG) (human) (UniProt Q8NHH9); assay: as above

- binding [1]: binds
- binding [2]: binds
B1: SBP-tagged REEP4 (REEP4-SBP) (protein, UniProt Q9H6H4 1-257)
chain: MVSWMICRLVVLVFGMLCPAYASYKAVKTKNIREYVRWMMYWIVFALFMAAEIVTDIFISWFPFYYEIKMAFVLWLLSPYTKGASLLYRKFVHPSLSRHEKEIDAYIVQAKERSYETVLSFGKRGLNIAASAAVQAATKSQGALAGRLRSFSMQDLRSISDAPAPAYHDPLYLEDQVSHRRPPIGYRAGGLQDSDTEDECWSDTEAVPRAPARPREKPLIRSQSLRVVKRKPPVREGTSRSLKVRTRKKTVPSDVDS

- binding [1]: binds
- binding [2]: binds
B2: SBP-tagged REEP1 (REEP1-SBP) (protein, UniProt Q9H902 1-201)
chain: MVSWIISRLVVLIFGTLYPAYYSYKAVKSKDIKEYVKWMMYWIIFALFTTAETFTDIFLCWFPFYYELKIAFVAWLLSPYTKGSSLLYRKFVHPTLSSKEKEIDDCLVQAKDRSYDALVHFGKRGLNVAATAAVMAASKGQGALSERLRSFSMQDLTTIRGDGAPAPSGPPPPGSGRASGKHGQPKMSRSASESASSSGTA
